Measured values published in PubChem BioAssay AID504444 (National Center for Advancing Translational Sciences (NCATS), 2011).
In all, about 360,000 compounds went through this assay and about 7,500 (2.1%) were called active. Inconclusive results, whose numbers are uncertain, are shown with a selection of clear calls. The call rests on the fitted dose curve; in most records, active means well fitted inhibition curve with a large enough effect; inconclusive means small, poorly fitted or top-dose-only effect, or effect the other way; inactive means flat fitted curve, though single readings scatter. Potencies of inconclusive entries are doubtful fits and often do not repeat.

test: Nrf2 qHTS screen for inhibitors; conditions: A549 ARE-Fluc reporter, luciferase luminescence, 18-24 h; activity change, negative = inhibition: at 46 µM (top of the series); further: nearly all actives have a fitted effect of over 60% in size
How it was run: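 Quantitative HTS in A549 cells stably bearing an antioxidant response element-firefly luciferase construct. Inhibition of Nrf2-driven transcription was scored by luminescence after 18-24 h of compound exposure at 37 °C.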
On the % scale 0 is the no-effect control and ±100 the full control effect; potency means the concentration at half of the fitted maximal effect.

SMILES | activity change, negative = inhibition | Potency
CC1(C)Cc2c(cnn2-c2ccc(F)cc2)C(NC(=O)CCN2CCCCO2)C1 (stereo not drawn) | inactive: -7.08% | –
O=C(COc1ccc(Cl)cc1)Nc1ccc(Cc2ccncc2)cc1 | inactive: -22.2% | –
COc1ccc(OC)c(NC(=O)CSc2ncnc3c2cnn3-c2ccccc2Cl)c1 | – | active: 4.61 µM
Cc1cccc(Oc2nc(CN3CCOCC3)nc3sc4c(c23)CCCC4)c1 | – | inconclusive: 18.4 µM [falling, single point]
Cc1ccc(CCNc2ncnc3onc(-c4ccc(F)cc4)c23)cc1 | – | inconclusive: 29.1 µM [activator, single point]
Cc1ccc(-c2cc(C(=O)N3CCOCC3)no2)cc1 | – | inconclusive: 0.92 µM [activator, full curve, poor fit]
COc1ccc(NC(=O)CCn2c(=O)c3cccn3c3cccnc32)cc1Cl | – | inconclusive: 25.9 µM [activator, single point]
COc1cccc(NC(=O)C(Sc2nnc(Nc3ccccc3C)s2)c2ccccc2)c1 (stereo not drawn) | – | inconclusive: 32.6 µM [falling, single point]
O=C(Nc1nnc(CCc2ccccc2)s1)C1CCN(C(=O)c2ccco2)CC1 | – | inconclusive: 18.4 µM [falling, single point]
CCc1cc(CNC(=O)CCc2nnc(CCCc3ccccc3)o2)on1 | – | inconclusive: 29.1 µM [activator, single point]
COc1cc(CN2CC(=O)N(c3cccc(Cl)c3C)C2=S)cc(OC)c1OC | – | inconclusive: 16.4 µM [falling, partial curve, poor fit]
CCCCNC(=O)/C=C/c1ccc(S(=O)(=O)Nc2ccc(OC)cc2)cc1 | – | inconclusive: 32.6 µM [falling, single point]
Cc1ccc(COc2ccc(-c3cc(C(F)(F)F)n4nc(C)cc4n3)cc2)cc1 | – | inconclusive: 29.1 µM [activator, single point]
O=C(Nc1ccc2c(c1)OCO2)c1ccc(Br)s1 | – | inconclusive: 1.3 µM [activator, full curve]
Fc1ccc(NC(=S)N2CCN(C/C=C/c3ccccc3)CC2)c(F)c1 | – | active: 20.6 µM
CCCCSc1nc(N)c(C#N)c(-c2cccs2)c1C#N | – | inconclusive: 29.1 µM [falling, single point]
O=C(Nc1ccc(Oc2ccc(S(=O)(=O)N3CCOCC3)cn2)cc1)c1ccco1 | – | inconclusive: 29.1 µM [falling, single point]
C[C@H](NC(=O)c1nc[nH]c1C(=O)N[C@@H](CCCCNC(=O)OC(C)(C)C)C(=O)OC(C)(C)C)C(=O)OC(C)(C)C | – | inconclusive: 23.1 µM [falling, partial curve]
CC(=O)Nc1ccc(S(=O)(=O)N2CCN(c3nc4ccccc4n3CC(C)C)CC2)cc1 | – | inconclusive: 11.6 µM [falling, partial curve, poor fit]
COc1ccc(CCNC(=O)CSc2cn(CCNC(=O)c3cccc(C(F)(F)F)c3)c3ccccc23)cc1OC | – | inconclusive: 20.6 µM [falling, single point]
COc1ccccc1CNc1ncnc2sccc12 | – | active: 3.26 µM

SMILES | activity change, negative = inhibition | Potency
COc1ccccc1NOC(=O)CCOc1ccccc1 | – | inconclusive: 16.4 µM [activator, partial curve, poor fit]
Cc1ccc(NS(=O)(=O)c2ccc3c(c2)CC(=O)N3)c(C)c1 | – | inconclusive: 4.61 µM [falling, full curve]
Cc1ccc(S(=O)(=O)N2CCc3cc(C(=O)Nc4ccc(C(F)(F)F)cc4)ccc32)cc1 | – | inconclusive: 18.4 µM [falling, partial curve, poor fit]
CC(C)[C@@H](CO)NC(=O)c1ccc2c3n(nc2c1)-c1ccc(Cl)cc1CO3 | – | inconclusive: 7.31 µM [activator, partial curve, poor fit]
Cc1ccc(SCC(=O)Nc2ccccc2N2CCOCC2)cc1 | – | inconclusive: 25.9 µM [falling, partial curve, poor fit]
COc1cccc(CNC(=O)Cc2csc(NC(=O)Nc3ccccc3OC)n2)c1 | – | inconclusive: 23.1 µM [falling, partial curve, poor fit]
Cc1cc(C(F)F)n2nc(C(=O)Nc3ccc(C(C)C)cc3)nc2n1 | inactive: 5.45% | –
Cc1ccc(Nc2nc(NCc3ccco3)nc3nccnc23)cc1C | inactive: 14.4% | –
Cc1ccc(Oc2nc3c(c(=O)n(Cc4ccccc4)c(=O)n3C)n2C)cc1C | – | active: 18.4 µM
O=C(NCc1cccnc1)c1ccc(Cl)c(S(=O)(=O)N2CCCCCC2)c1 | – | inconclusive: 0.731 µM [falling, full curve, poor fit]
Cc1ccc(S(=O)(=O)N(C(=O)c2ccncc2)c2ccc3oc4c(c3c2)CCCC4)cc1[N+](=O)[O-] | – | inconclusive: 32.6 µM [falling, single point]
CCN(C(=O)C1CCC(CNS(=O)(=O)c2cccc3nsnc23)CC1)c1ccccc1 (stereo not drawn) | – | inconclusive: 16.4 µM [falling, partial curve, poor fit]
CC1(C)CC(=O)c2cc(C(=O)Nc3ccc(Br)cc3)c(=O)[nH]c2C1 | inactive: 5.59% | –
CCN(C(=O)C1CCC(CNS(=O)(=O)c2cccc3nsnc23)CC1)c1cccc(C)c1 (stereo not drawn) | – | inconclusive: 16.4 µM [falling, partial curve]
O/N=C(/CN(O)/C=C1/C=CC=N1)c1cccs1 | – | inconclusive: 6.51 µM [falling, single point]
CN(C)CCOC(c1ccc(Cl)cc1)c1ccccn1 (stereo not drawn) | – | inactive
CN(CCc1ccccc1)C(=O)c1cccc(NC(=O)Cc2cccc(NC(=O)C3CCCN(C(=O)C4CCC4)C3)c2)c1 (stereo not drawn) | – | inconclusive: 20.6 µM [falling, single point]
CCOC(=O)CN(c1cc([N+](=O)[O-])ccc1OC)S(C)(=O)=O | inactive: 3.99% | –
CCOC(=O)C1(CCCc2ccccc2)CCN(C(=O)CN2C(=O)CSC2=O)CC1 | inactive: -15.4% | –
COc1ccc(/C=C(\C#N)C(=O)Nc2ccccn2)cc1 | inactive: -6.08% | –
CCC(C)C(=O)Nc1c2c(nc3c1CCC3)CCCC2 (stereo not drawn) | – | inconclusive: 14.6 µM [activator, single point]

SMILES | activity change, negative = inhibition | Potency
O=C(NCC1CCCO1)c1cccnc1NCc1ccc(F)cc1 (stereo not drawn) | – | inconclusive: 11.6 µM [falling, partial curve, poor fit]
CC(C)Oc1ccc(CN=C(N)N=C(N)N)cc1Cl | – | active: 14.6 µM
O=C(Nc1nnc(CSCc2ccc(Cl)cc2)s1)c1cccc([N+](=O)[O-])c1 | – | inconclusive: 29.1 µM [falling, single point]
Cc1ccc(-n2c(C)cc(/C=N\NC(=O)CC(=O)NC(C)C)c2C)cc1 | – | inconclusive: 0.164 µM [falling, full curve, poor fit]
Cc1ccc(S(=O)(=O)N(CC(O)Cn2c3ccccc3c3ccccc32)c2cccc(C(=O)N(C)C)c2)cc1 (stereo not drawn) | – | inconclusive: 32.6 µM [falling, single point]
CCCCn1c(SCC(=O)c2ccccc2)nc2ccsc2c1=O | – | inconclusive: 23.1 µM [falling, single point]
O=C(Nc1ccccc1)C1C2CCCCC21 (stereo not drawn) | – | inconclusive: 25.9 µM [activator, single point]
CCCCOC(=O)Nc1ccc(C(C)C)cc1 | – | inconclusive: 2.31 µM [activator, full curve]
COc1ccc(CC(=O)Nc2ccc(N3CCN(c4ccc(OC)cc4)CC3)c(C#N)c2)cc1 | – | inconclusive: 14.6 µM [falling, partial curve, poor fit]
Cc1ccc(N(C)S(=O)(=O)c2cc3c(cc2C)NC(=O)CO3)cc1 | – | inconclusive: 0.164 µM [falling, partial curve, poor fit]
O=C(NCc1n[nH]c(=S)n1-c1ccc([N+](=O)[O-])cc1)c1ccc(S(=O)(=O)N2CCOCC2)cc1 | – | inconclusive: 5.8 µM [falling, partial curve, poor fit]
O=C1CC(c2cccc(Cl)c2)CC(O)=C1C=Nc1ccccc1 (stereo not drawn) | – | inconclusive: 29.1 µM [falling, single point]
C=CCC1(CC=C)CCCN1C(=O)C1CCC(=O)N(CCc2ccc(OC)cc2)C1 (stereo not drawn) | – | inconclusive: 4.11 µM [falling, single point]
CCOC(=O)N1CCN(C(=O)C2CCCN(c3ncnc4c3sc3cccc(F)c34)C2)CC1 (stereo not drawn) | – | inconclusive: 32.6 µM [falling, single point]
Cc1cc(C)nc(Nc2nc(-c3ccccc3)cs2)n1 | – | inconclusive: 0.92 µM [activator, full curve, poor fit]
CCN(CC)S(=O)(=O)c1cccc(C(=O)/C=C2/N(C)c3ccccc3C2(C)C)c1 | – | inconclusive: 29.1 µM [falling, partial curve, poor fit]
COc1cccc(N2CCN(S(=O)(=O)c3ccc4c(c3)CC(C)N4C(=O)C3CC3)CC2)c1 (stereo not drawn) | – | inconclusive: 18.4 µM [falling, single point]
COc1cc(/C=C2\COC/C(=C\c3ccc(O)c(OC)c3)C2=O)ccc1O | – | inconclusive: 25.9 µM [falling, single point]
CCOC(=O)c1c(NC(=O)CN2CCN(S(=O)(=O)c3cc(Cl)ccc3Cl)CC2)sc(C(=O)N(C)C)c1C | – | inconclusive: 23.1 µM [falling, single point]
CCc1cccc(C)c1NC(=O)CSc1nc2ccc(N3C(=O)c4ccccc4C3=O)cc2s1 | – | inconclusive: 20.6 µM [falling, single point]
COCCCNC(=S)NC(=O)c1ccccc1 | – | inconclusive: 25.9 µM [activator, single point]

A stretch from the list above, as a working copy:
SMILES | activity change, negative = inhibition | Potency
O=C(Nc1nnc(CSCc2ccc(Cl)cc2)s1)c1cccc([N+](=O)[O-])c1 | – | inconclusive: 29.1 µM [falling, single point]
Cc1ccc(-n2c(C)cc(/C=N\NC(=O)CC(=O)NC(C)C)c2C)cc1 | – | inconclusive: 0.164 µM [falling, full curve, poor fit]
Cc1ccc(S(=O)(=O)N(CC(O)Cn2c3ccccc3c3ccccc32)c2cccc(C(=O)N(C)C)c2)cc1 (stereo not drawn) | – | inconclusive: 32.6 µM [falling, single point]
CCCCn1c(SCC(=O)c2ccccc2)nc2ccsc2c1=O | – | inconclusive: 23.1 µM [falling, single point]
O=C(Nc1ccccc1)C1C2CCCCC21 (stereo not drawn) | – | inconclusive: 25.9 µM [activator, single point]
